Reference: patent US9205050B2, “Antibiotic formulations, unit doses, kits and methods” (Bayer Intellectual Property GmbH, priority 2005, dated 2015)
Counter-ions that a name gives are not always drawn. Some results were stated once for a whole list of compounds, not compound by compound.

Assay: particle size distribution of nebulized aerosol, laser diffraction
Format: physicochemical
Details: 120 mg/ml in water, fill volume 5 ml

CN[C@H](CC(C)C)C(=O)N[C@H]1C(=O)N[C@@H](CC(N)=O)C(=O)N[C@H]2C(=O)N[C@H]3C(=O)N[C@H](C(=O)N[C@H](C(=O)O)c4cc(O)cc(O)c4-c4cc3ccc4O)[C@H](O)c3ccc(c(Cl)c3)Oc3cc2cc(c3O[C@@H]2O[C@H](CO)[C@@H](O)[C@H](O)[C@H]2O[C@H]2C[C@](C)(N)[C@H](O)[C@H](C)O2)Oc2ccc(cc2Cl)[C@H]1O [Vancomycin HCl, vancomycin hydrochloride]
median particle size (volume median diameter): 2-3 μm
